This experiment concerns the target chromobox 5 (CBX5) (mouse (endogenous in primary PASMCs)) (UniProt Q61686). As to the kind of experiment: co-IP; lysates of control and hypoxic PASMCs; anti-CBX5 antibody overnight at 4 °C, protein G/A beads; washed with 50 mM Tris-HCl pH 7.4, 100 mM NaCl, 5 mM CaCl2, 5 mM MgCl2, 0.1% Nonidet P-40; western blot with anti-USP15.

The chains behind the UniProt entries cited, without tags or fusion partners.
UniProt Q61686: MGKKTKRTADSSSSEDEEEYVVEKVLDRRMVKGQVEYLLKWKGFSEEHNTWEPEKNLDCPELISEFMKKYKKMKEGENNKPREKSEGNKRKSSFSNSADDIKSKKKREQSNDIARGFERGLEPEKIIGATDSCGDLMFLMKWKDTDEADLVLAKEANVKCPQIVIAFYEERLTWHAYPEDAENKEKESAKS

Data on one molecule can be found in publication PMC11734815.

These are yes or no findings as the source states them, for the method shown. Binding seen in cells or lysates may run through a third protein. Some binding calls cover weakened binding; strength is not graded here.

B1: ubiquitin-specific protease 15 (USP15) (enzyme, UniProt Q8R5H1 1-981)
chain: MAEGGAADLDTQRSDIATLLKTSLRKGDTWYLVDSRWFKQWKKYVGFDSWDKYQMGDQNVYPGPIDNSGLLKDGDAQSLKEHLIDELDYILLPTEGWNKLVSWYTLMEGQEPIARKVVEQGMFVKHCKVEVYLTELKLCENGNMNNVVTRRFSKADTIDTIEKEIRKIFNIPDEKEARLWNKYMSNTFEPLNKPDSTIQDAGLYQGQVLVIEQKNEDGTWPRGPSTPKSPGASNFSTLPKISPSSLSNNYNNINNRNVKNSNYCLPSYTAYKNYDYSEPGRNNEQPGLCGLSNLGNTCFMNSAIQCLSNTPPLTEYFLNDKYQEELNFDNPLGMRGEIAKSYAELIKQMWSGKFSYVTPRAFKTQVGRFAPQFSGYQQQDCQELLAFLLDGLHEDLNRIRKKPYIQLKDADGRPDKVVAEEAWENHLKRNDSIIVDIFHGLFKSTLVCPECAKISVTFDPFCYLTLPLPMKKERSLEVYLVRMDPLAKPMQYKVIVPKIGNILDLCTALSALSGVPADKMIVTDIYNHRFHRIFAVDENLSSIMERDDIYVFEININRAEDTEHVVIPVCLREKFRHSSYTHHTGSSLFGQPFLMAIPRNNTEDKLYNLLLLRMCRYVKMSTETEETDGHLRCCEDQNINGNGPNGLHEEGSPSEMETDEPDDESSQDQELPSENENSQSEDSVGGDNDSENGLCTEETCKGQLTGHKKRLFTFQFNNLGNNDINYIKDDTSHIRFDDRQLRLDERSFLALDWDPDLKKRYFDENAAEDFEKHESVEYKPPKRPFVKLKDCIELFTTKEKLGAEDPWYCPNCKEHQQATKKLDLWSLPPVLVVHLKRFSYSRYMRDKLDTLVDFPISDLDMSEFLINPNAGPCRYNLIAVSNHYGGMGGGHYTAFAKNKDDGKWYYFDDSSVSTASEDQIVSKAAYVLFYQRQDTFSGTGFFPLDRETKGASAATGIPLESDEDSNDNDNDLENENCMHTN
For the molecule B1, the binding result was “binds”.
